Test results: patent publication US9073929B2, “Aldosterone synthase inhibitors” (ElexoPharm GmbH, priority 2011, dated 2015)
Some of these results come from one statement about several compounds together.

Tests used:
[1] = molecular target: T1, human CYP11B2 (Homo sapiens, UniProt P19099); assay: V79-Human-CYP11B2 cell assay (aldosterone HTRF); format: cell-based; details: V79-hCYP11B2 cells, 125 nM 11-deoxycorticosterone, 3 hours
T1 construct: expressed in transfected cells; host or cells: V79 cells (clone V79-hCYP11B2-CLE9)
T1 sequence (P19099 25-503): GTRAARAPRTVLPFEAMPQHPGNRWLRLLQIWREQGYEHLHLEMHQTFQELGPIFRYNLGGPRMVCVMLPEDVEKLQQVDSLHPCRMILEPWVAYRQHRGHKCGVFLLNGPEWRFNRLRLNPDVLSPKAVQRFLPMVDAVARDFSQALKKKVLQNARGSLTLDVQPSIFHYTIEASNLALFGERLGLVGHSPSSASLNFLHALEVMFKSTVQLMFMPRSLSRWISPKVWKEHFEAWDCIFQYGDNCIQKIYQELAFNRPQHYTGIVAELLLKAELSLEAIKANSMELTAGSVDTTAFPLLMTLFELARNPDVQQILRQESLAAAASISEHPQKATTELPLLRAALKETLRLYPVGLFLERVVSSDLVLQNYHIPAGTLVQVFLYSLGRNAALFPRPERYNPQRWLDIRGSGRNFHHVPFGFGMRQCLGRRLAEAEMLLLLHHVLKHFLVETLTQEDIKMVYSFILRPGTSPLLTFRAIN
Experimental: Methods for V79-Human-CYP11B2 and V79-Human-CYP11B1 Assays:
(§1) V79 cell lines stably expressing the either the human CYP11B2 or the human CYP11B1 enzyme were generated using a standard transfection protocol. V79 cells were transfected with plasmids pTriEx3-Hygro-hCyp11B2 or pTriEx3-Hygro-hCyp11B1 using Lipofectamine2000 reagent. V79 cells that stably express the human CYP11B2 or human CYP11B1 enzyme were selected for and maintained in DMEM supplemented with 10% FBS and 400 μg/mL hygromycin for ˜2 weeks. Single cell clones were generated by infinite dilution in DMEM supplemented with 10% FBS and 400 μg/mL hygromycin until single colonies were obtained. Clones V79-hCYP11B2-CLE9 and V79-hCYP11B1-8C7, were determined to produce the most aldosterone and cortisol, respectively, and were selected for inhibitor screening. For testing of inhibitors, cells were harvested at 80% confluency with 0.5% Trypsan-EDTA, washed once in PBS, and reconstituted in DMEM+0.1% BSA media at a cell concentration of 400,000 cells/mL. 25 μl of cells were added to a 384 well tissue culture treated plate and mixed with 0.25 μl of inhibitor or DMSO (1% final DMSO concentration) for 1 hour at 37° C., 5% CO2. After pre-incubation with inhibitor, the reaction was initiated by adding 5 μl of substrate (final concentration of 125 nM 11-deoxycorticosterone for the CYP11B2 assay or 250 nM 11-deoxycortisol for the CYP11B1 assay). The reaction was carried out for 3 hours at 37° C., 5% CO2 and was stopped by harvesting the supernatants. The amount of product in the supernatant (aldosterone for CYP11B2 assay and cortisol for the CYP11B1 assay) was measured using HTRF-based assay kit (Aldosterone HTRF-CisBio#64ALDPEB, Cortisol HTRF-CisBio #631DC002-CORT). IC50's for the inhibitor were determined by plotting the amount of product formed against the concentration of inhibitor using sigmoidal dose-response curve (variable slope) fit in GraphPad.

[2] = molecular target: T1, human CYP11B2; assay: V79-Human-CYP11B2 cell assay, modified protocol (600,000 cells/mL); format: cell-based; details: 0.30 μl inhibitor
Experimental: as §1, with “Clones V79-hCYP11B2-CLE9 and V79-hCYP11B1-8C7, were determined to produce the most aldosterone and cortisol, respectively, and were selected for inhibitor screening.” left out
For the CYP11B2 assay, cells were reconstituted in DMEM+0.1% BSA media at a cell concentration of 600,000 cells/mL and for the CYP11B1 assay cells were reconstituted in DMEM+0.1% BSA media at a cell concentration of 280,000 cells/mL. 25 μl of cells were added to a 384 well tissue culture treated plate and mixed with 0.30 μl of inhibitor or DMSO (1% final DMSO concentration) for 1 hour at 37° C., 5% CO2.

Row | SMILES | IC50 [1] [µM] | IC50 [2] [µM]
1 | FC(F)(F)c1nnc2n1-c1ccc(-c3cccnc3)cc1CCC2 [Example 2, 8-(3-pyridinyl)-1-(trifluoromethyl)-5,6-dihydro-4H-[1,2,4]triazolo[4,3-a][1]benzazepine] | < 10 | –
2 | Cc1nnc2n1-c1ccc(-c3cccnc3)cc1CC2 [Example 3, 1-methyl-7-(pyridin-3-yl)-4,5-dihydro[1,2,4]triazolo[4,3-a]quinoline] | < 10 | –
3 | c1cncc(-c2ccc3c(c2)CCc2nnc(C4CC4)n2-3)c1 [Example 5, 1-cyclopropyl-7-(pyridin-3-yl)-4,5-dihydro[1,2,4]triazolo[4,3-a]quinoline] | < 10 | –
4 | FC(F)(F)c1nnc2n1-c1ccc(-c3cccnc3)cc1CC2 [Example 6, 7-(pyridin-3-yl)-1-(trifluoromethyl)-4,5-dihydro[1,2,4]triazolo[4,3-a]quinoline] | < 10 | –
5 | c1cncc(-c2ccc3c(c2)CCc2nnc(-c4ccon4)n2-3)c1 [Example 7, 1-(isoxazol-3-yl)-7-(pyridin-3-yl)-4,5-dihydro[1,2,4]triazolo[4,3-a]quinoline] | < 10 | –
6 | Cc1cc(-c2nnc3n2-c2ccc(-c4cccnc4)cc2CC3)no1 [Example 8, 1-(5-methylisoxazol-3-yl)-7-(pyridin-3-yl)-4,5-dihydro[1,2,4]triazolo[4,3-a]quinoline] | < 10 | –
7 | CC(C)(C)c1nnc2n1-c1ccc(-c3cccnc3)cc1CC2 [Example 9, 1-tert-butyl-7-(pyridin-3-yl)-4,5-dihydro[1,2,4]triazolo[4,3-a]quinoline] | < 10 | –
8 | CC(C)c1nnc2n1-c1ccc(-c3cccnc3)cc1CC2 [Example 10, 1-(propan-2-yl)-7-(pyridin-3-yl)-4,5-dihydro[1,2,4]triazolo[4,3-a]quinoline] | < 10 | –
9 | Fc1ccccc1-c1nnc2n1-c1ccc(-c3cccnc3)cc1CC2 [Example 12, 1-(2-fluorophenyl)-7-(pyridin-3-yl)-4,5-dihydro[1,2,4]triazolo[4,3-a]quinoline] | < 10 | –
10 | Fc1ccc(-c2nnc3n2-c2ccc(-c4cccnc4)cc2CC3)cc1 [Example 13, 1-(4-fluorophenyl)-7-(pyridin-3-yl)-4,5-dihydro[1,2,4]triazolo[4,3-a]quinoline] | < 10 | –
11 | Cc1c(F)cncc1-c1ccc2c(c1)CCc1nncn1-2 [Example 14, 7-(5-fluoro-4-methylpyridin-3-yl)-4,5-dihydro-[1,2,4]triazolo[4,3-a] quinoline] | < 10 | –
12 | C[C@](O)(c1cncc(-c2cc(F)c3c(c2)CCc2nncn2-3)c1)C(F)(F)F [Example 18, (S)-1,1,1-trifluror-2-(5-(9-fluoro-4,5-dihydro-[1,2,4]triazolo[4,3a]quinolin-7-yl)pyridin-3-yl)propan-2-ol] | < 10 | –
13 | Fc1cncc(-c2cc(Cl)c3c(c2)CCc2nncn2-3)c1 [Example 19, 9-chloro-7-(5-fluoropyridin-3-yl)-4,5-dihydro-[1,2,4]triazolo[4,3-a]quinoline] | < 10 | –
14 | Cc1c(F)cncc1-c1cc(Cl)c2c(c1)CCc1nncn1-2 [Example 20, 9-chloro-7-(5-fluoro-4-methylpyridin-3-yl)-4,5-dihydro-[1,2,4]triazolo[4,3-a]quinoline] | < 10 | –
15 | C[C@](O)(c1cncc(-c2cc(Cl)c3c(c2)CCc2nncn2-3)c1)C(F)(F)F [Example 21] | < 10 | –
16 | Cc1nnc2n1-c1ccc(-c3cncc(S(=O)(=O)c4ccccc4)c3)cc1CC2 [Example 25, 1-methyl-7-[5-(phenylsulfonyl)pyridin-3-yl]-4,5-dihydro[1,2,4]triazolo[4,3-a]quinoline] | < 10 | –
17 | Cc1nnc2n1-c1ccc(-c3cncc(C(C)(C)O)c3)cc1CC2 [Example 26, 2-[5-(1-methyl-4,5-dihydro[1,2,4]triazolo[4,3-a]quinolin-7-yl)pyridin-3-yl]propan-2-ol] | < 10 | –
18 | CC(C)(O)c1cncc(-c2ccc3c(c2)CCc2nnc(C(F)(F)F)n2-3)c1 [Example 27, 2-{5-[1-(trifluoromethyl)-4,5-dihydro[1,2,4]triazolo[4,3-a]quinolin-7-yl]pyridin-3-yl}propan-2-ol] | < 10 | –
19 | CC(C)(O)c1cncc(-c2ccc3c(c2)CCc2nnc(-c4ccccc4)n2-3)c1 [Example 28, 2-[5-(1-phenyl-4,5-dihydro[1,2,4]triazolo[4,3-a]quinolin-7-yl)pyridin-3-yl]propan-2-ol] | < 10 | –
20 | Cc1nnc2n1-c1cc(F)c(-c3cncc(C(C)(C)O)c3)cc1CC2 [Example 142, 2-(5-(8-fluoro-1-methyl-4,5-dihydro-[1,2,4]triazolo [4,3-a]quinolin-7-yl)pyridin-3-yl)propan-2-ol] | – | < 10
21 | Cc1nnc2n1-c1ccc(-c3cncc(F)c3)c(Cl)c1CC2 [Example 143, 6-chloro-7-(5-fluoropyridin-3-yl)-1-methyl-4,5-dihydro-[1,2,4]triazolo[4,3-a]quinoline] | – | < 10
22 | CCc1c(F)cncc1-c1ccc2c(c1Cl)CCc1nnc(C)n1-2 [Example 144, 6-chloro-7-(4-ethyl-5-fluoropyridin-3-yl)-1-methyl-4,5-dihydro-[1,2,4] triazolo[4,3-a]quinoline] | – | < 10
23 | Cc1nnc2n1-c1ccc(-c3cncc(F)c3)c(C#N)c1CC2 [Example 145, 7-(5-fluoropyridin-3-yl)-1-methyl-4,5-dihydro-[1,2,4]triazolo[4,3-a]quinoline-6-carbonitrile] | – | < 10
24 | CCc1c(F)cncc1-c1ccc2c(c1F)CCc1nnc(C)n1-2 [Example 146, 7-(4-ethyl-5-fluoropyridin-3-yl)-6-fluoro-1-methyl-4,5-dihydro-[1,2,4]-triazolo[4,3-a]quinoline] | – | < 10
25 | Cc1nnc2n1-c1ccc(-c3cncc(F)c3)c(C3CC3)c1CC2 [Example 147, 6-cyclopropyl-7-(5-fluoropyridin-3-yl)-1-methyl-4,5-dihydro-[1,2,4]triazolo[4,3-a]quinoline] | – | < 10
26 | CCc1c(F)cncc1-c1cc2c(c(Cl)c1F)-n1cnnc1CC2 [Example 150, 9-chloro-7-(4-ethyl-5-fluoropyridin-3-yl)-8-fluoro-4,5-dihydro-[1,2,4]triazolo[4,3-a]quinoline] | – | < 10
27 | CCc1c(F)cncc1-c1cc2c(c(Cl)c1F)-n1c(C)nnc1CC2 [Example 151, 9-chloro-7-(4-ethyl-5-fluoropyridin-3-yl)-8-fluoro-1-methyl-4,5-dihydro-[1,2,4]triazolo[4,3-a]quinoline] | – | < 10
